In patent US20130017550A1:
No constants are given. Whether binding was seen depends on the method and setting. In cells and extracts the contact can be indirect. Some binding calls cover weakened binding; strength is not graded here.

Sequences of proteins named here, by UniProt entry; tags and fusion partners are left off. A change or cut given only in a name is not applied to a line headed by its entry.
UniProt Q02111: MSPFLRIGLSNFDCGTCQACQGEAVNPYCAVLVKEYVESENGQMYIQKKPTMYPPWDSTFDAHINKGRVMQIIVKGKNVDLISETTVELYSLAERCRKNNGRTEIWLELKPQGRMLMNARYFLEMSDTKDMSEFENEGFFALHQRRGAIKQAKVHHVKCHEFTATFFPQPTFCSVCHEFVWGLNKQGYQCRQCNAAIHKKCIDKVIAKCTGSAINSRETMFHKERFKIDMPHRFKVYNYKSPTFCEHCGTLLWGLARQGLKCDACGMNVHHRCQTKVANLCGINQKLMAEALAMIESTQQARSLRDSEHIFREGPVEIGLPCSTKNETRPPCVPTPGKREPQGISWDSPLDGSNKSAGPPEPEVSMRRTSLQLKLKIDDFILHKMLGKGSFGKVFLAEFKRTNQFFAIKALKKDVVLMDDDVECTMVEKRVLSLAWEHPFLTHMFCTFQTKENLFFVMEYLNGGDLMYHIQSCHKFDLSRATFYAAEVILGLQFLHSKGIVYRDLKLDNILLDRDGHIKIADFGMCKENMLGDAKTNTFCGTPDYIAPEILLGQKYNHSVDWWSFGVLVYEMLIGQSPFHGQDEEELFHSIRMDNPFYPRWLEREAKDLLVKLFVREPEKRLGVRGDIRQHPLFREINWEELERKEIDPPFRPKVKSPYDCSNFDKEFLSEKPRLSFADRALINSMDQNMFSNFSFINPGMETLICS
UniProt Q99JP0: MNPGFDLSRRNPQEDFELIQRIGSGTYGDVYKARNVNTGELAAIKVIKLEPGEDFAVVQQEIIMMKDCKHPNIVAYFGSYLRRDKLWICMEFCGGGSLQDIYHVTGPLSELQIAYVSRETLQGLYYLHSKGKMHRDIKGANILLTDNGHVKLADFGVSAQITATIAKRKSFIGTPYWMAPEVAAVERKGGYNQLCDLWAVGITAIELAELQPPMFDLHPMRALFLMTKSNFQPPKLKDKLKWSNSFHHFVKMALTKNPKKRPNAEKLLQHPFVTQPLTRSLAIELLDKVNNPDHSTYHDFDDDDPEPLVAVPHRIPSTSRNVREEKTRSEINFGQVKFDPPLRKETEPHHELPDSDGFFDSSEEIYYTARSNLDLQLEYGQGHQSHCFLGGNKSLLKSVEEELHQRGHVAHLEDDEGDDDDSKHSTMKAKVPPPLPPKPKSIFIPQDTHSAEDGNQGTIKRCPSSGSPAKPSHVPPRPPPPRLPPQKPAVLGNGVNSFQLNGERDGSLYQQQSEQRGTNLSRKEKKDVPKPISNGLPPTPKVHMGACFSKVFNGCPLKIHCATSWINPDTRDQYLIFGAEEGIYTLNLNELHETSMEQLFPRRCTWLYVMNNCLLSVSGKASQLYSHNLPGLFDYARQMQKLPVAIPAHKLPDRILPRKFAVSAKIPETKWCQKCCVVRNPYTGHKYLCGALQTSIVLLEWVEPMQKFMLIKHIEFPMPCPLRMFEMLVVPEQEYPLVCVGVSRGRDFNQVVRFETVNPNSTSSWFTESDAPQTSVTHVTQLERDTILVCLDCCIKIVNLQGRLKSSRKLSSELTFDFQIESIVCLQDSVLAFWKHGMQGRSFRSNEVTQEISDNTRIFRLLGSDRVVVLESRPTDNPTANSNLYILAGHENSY

What was measured:
[1] = target: T1, endogenous SLP-76 in mouse primary T cells (mouse) (UniProt Q60787); test: co-immunoprecipitation from lysates of mouse primary T cells after CD3 stimulation (FIG. 2a)
T1 sequence (looked up): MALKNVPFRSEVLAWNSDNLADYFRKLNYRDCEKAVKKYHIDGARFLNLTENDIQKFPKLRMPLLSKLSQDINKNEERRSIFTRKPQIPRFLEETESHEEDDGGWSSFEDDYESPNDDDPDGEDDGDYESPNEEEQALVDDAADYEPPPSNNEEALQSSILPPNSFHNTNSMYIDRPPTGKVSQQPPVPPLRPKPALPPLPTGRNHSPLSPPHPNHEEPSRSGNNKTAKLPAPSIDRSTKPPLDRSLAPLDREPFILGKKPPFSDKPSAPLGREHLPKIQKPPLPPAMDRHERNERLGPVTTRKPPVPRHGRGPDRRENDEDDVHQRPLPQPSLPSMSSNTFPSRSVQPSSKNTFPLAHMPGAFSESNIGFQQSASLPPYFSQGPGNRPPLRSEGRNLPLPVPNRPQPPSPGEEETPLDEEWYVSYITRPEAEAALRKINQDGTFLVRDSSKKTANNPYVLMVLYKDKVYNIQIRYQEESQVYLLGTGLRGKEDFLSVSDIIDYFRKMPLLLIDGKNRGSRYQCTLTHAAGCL

[2] = target: endogenous PKC-θ in mouse primary T cells (mouse) (UniProt Q02111); test: co-immunoprecipitation from lysates of mouse primary T cells after CD3 stimulation (FIG. 1b)
[3] = target: endogenous PKC-θ in mouse primary T cells (mouse) (UniProt Q02111); test: co-immunoprecipitation time course, mouse primary T cells after CD3 stimulation (FIG. 2a)

Measured: binding

endogenous GLK in mouse primary T cells (from UniProt Q99JP0 1-894) (enzyme)
binds: all assays above
